Laboratory results as given in patent publication US20130039922A1.
No constants are given. Whether binding was seen depends on the method and setting. Binding seen in cells or lysates may run through a third protein. Some binding calls cover weakened binding; strength is not graded here.

The chains behind the UniProt entries cited, without tags or fusion partners. Residues count along the entry.
UniProt P33434, residues 110-467: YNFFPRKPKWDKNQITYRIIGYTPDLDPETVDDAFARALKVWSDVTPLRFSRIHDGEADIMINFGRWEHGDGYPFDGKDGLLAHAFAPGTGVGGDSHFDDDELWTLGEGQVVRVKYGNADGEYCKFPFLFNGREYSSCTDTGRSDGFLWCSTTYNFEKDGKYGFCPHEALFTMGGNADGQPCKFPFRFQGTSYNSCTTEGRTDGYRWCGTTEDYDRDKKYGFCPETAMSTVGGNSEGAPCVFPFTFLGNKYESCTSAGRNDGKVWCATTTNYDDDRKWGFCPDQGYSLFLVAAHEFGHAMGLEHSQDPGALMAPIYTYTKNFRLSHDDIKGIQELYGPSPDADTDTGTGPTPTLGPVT
UniProt P41245, residues 108-730: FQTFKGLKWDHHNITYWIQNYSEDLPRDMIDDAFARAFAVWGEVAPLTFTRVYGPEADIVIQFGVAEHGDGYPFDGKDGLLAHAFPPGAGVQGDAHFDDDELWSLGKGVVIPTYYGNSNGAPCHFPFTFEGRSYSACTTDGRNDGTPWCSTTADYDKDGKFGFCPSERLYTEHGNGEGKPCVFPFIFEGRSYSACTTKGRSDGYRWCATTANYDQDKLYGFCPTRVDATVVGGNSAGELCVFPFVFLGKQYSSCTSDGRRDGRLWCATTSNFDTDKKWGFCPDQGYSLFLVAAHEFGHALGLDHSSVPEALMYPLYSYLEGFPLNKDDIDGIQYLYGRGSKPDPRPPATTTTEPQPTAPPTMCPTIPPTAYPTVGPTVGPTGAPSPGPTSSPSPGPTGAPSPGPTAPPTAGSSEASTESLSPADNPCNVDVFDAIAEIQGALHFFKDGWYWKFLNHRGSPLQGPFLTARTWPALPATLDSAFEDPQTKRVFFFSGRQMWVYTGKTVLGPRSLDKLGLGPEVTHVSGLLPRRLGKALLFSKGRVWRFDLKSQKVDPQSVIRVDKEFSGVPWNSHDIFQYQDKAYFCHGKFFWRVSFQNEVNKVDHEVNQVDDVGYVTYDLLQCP

Assays:
[1] = target: active MMP-2 fragment (catalytic and fibronectin domain) (mouse) (UniProt P33434); test: pull-down with SDS3 on protein A beads, SDS-PAGE, Coomassie staining
[2] = target: native mouse MMP-9 in its activated form (ascitic fluid) (mouse) (UniProt P41245); test: co-immunoprecipitation from ascitic fluid, western blot (FIG. 7A)
[3] = target: active MMP-2 fragment (catalytic and fibronectin domain) (mouse) (UniProt P33434); test: pull-down with SDS3 on protein A beads, SDS-PAGE, Coomassie (FIG. 7B)
[4] = target: active MMP-2 fragment (catalytic and fibronectin domain) (mouse) (UniProt P33434); test: pull-down with SDS3 on protein A Sepharose beads, SDS-PAGE, Coomassie
[5] = target: native mouse MMP-9 in its activated form (ascitic fluid) (mouse) (UniProt P41245); test: co-immunoprecipitation from ascitic fluid on protein G beads, western blot with commercial anti-MMP-9 antibody

Measured: binding

B1: SDS3 (antibody, V domains shown)
VH: VQLQESGGGLVKPGGSLKLSCAASGFAFSTYDMSWIRQTPEKRLEWVATISSGGSYTYYPDSVKGRFTISKDNARNTLYLQMSSLRSGDTALYYCTRFRYDGWYFDVWGQG
VL: DVLITQTPLSLPVSLGDQASISCRSSQSIVHSNGNTFLEWYLQKPGQSPKLLIYKVSNRFSGVPDRFSGSGSGTDFTLKISRVEAEDLGVYYCFQASHVPPTFGGG
binds: all assays above
